{"source": "patent US20230263779A1", "about": "“METHODS OF TREATING SOLID TUMORS USING NANOPARTICLE MTOR INHIBITOR COMBINATION THERAPY” (Abraxis BioScience, LLC, priority 2015, published 2023)", "origin": "cited, not measured here", "target": "T1, mTORC1 (Homo sapiens, UniProt P42345)", "T1 construct": "endogenous in cells; host or cells: HEK293 cells; HUVEC cells", "settings": "HUVEC cells", "note": "At least one compound was matched to its structure with a doubt left.", "data": [{"smiles": "COC(=O)Nc1ccc(-c2nc(N3CCOCC3)c3cnn(C4CCN(C(=O)OC)CC4)c3n2)cc1", "note": "[WYE-354]", "values": [{"measurement": "concentration at which mTORC1 is inhibited", "result": "10 nM-1p M"}]}]}
